Values from PubChem BioAssay AID652243 (Drosophila RNAi Screening Center, 2013)
The screen tested about 24,000 reagents; below is an unselected part of those with a known target gene and a result. In the full data, 246 (1%) are marked active. 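Plates not normalised; calls are printed but the firefly/Renilla ratio behind them is not deposited; fold cut for lowering reported inconsistently.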 Raw values vary from plate to plate and are shown uncorrected. A number with no mark means an inactive call. Reagents against one gene are numbered here. Reagent sequences are not shown. Not given: the amount of reagent.

Test: 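Fly regulators of androgen-dependent reporter output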 (primary screen)
System: Drosophila S2R+ cells
Reagents: long dsRNA against Drosophila genes
Time to read-out: 72 h (48 h, then 24 h hormone)
Conditions: synthetic androgen R1881 at 10 nM for 24 h
Measured: 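Firefly light from an androgen-responsive reporter and Renilla control light per well, raw and unnormalised, for each of two replicates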
Reading the numbers: firefly reporter light: higher = more light from androgen-responsive reporter; Renilla control light: higher = more constitutive control signal (cell number, transfection)
Active means: 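Hit when the log firefly-to-Renilla ratio dropped or increased by a fixed fold versus the mean of GFP or LacZ controls across duplicate plates; lowering cut given as 1.5 and as 3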
Calls: active = hit: reporter lowered or raised; inactive = no hit

Against euc, the values are firefly reporter light, replicate 1 = 2.57e5; firefly reporter light, replicate 2 = 2.59e5; Renilla control light, replicate 1 = 4.02e6; Renilla control light, replicate 2 = 3.54e6. After knock-down of Hira, the screen gave firefly reporter light, replicate 1 = 5.13e5; firefly reporter light, replicate 2 = 5.19e5; Renilla control light, replicate 1 = 2.81e6; Renilla control light, replicate 2 = 2.87e6. With knock-down of Cys #1 the results were firefly reporter light, replicate 1 = 1.77e5; firefly reporter light, replicate 2 = 2.23e5; Renilla control light, replicate 1 = 2.81e6; Renilla control light, replicate 2 = 3.08e6. Cys #2 scored firefly reporter light, replicate 1 = 2.35e5; firefly reporter light, replicate 2 = 1.59e5; Renilla control light, replicate 1 = 6.23e5; Renilla control light, replicate 2 = 7.87e5. Against LManVI #1 the deposit lists firefly reporter light, replicate 1 = 2.24e5; firefly reporter light, replicate 2 = 1.39e5; Renilla control light, replicate 1 = 1.21e6; Renilla control light, replicate 2 = 1.06e6. After knock-down of LManVI #2 the results were firefly reporter light, replicate 1 = 2.56e5; firefly reporter light, replicate 2 = 2.22e5; Renilla control light, replicate 1 = 5.47e5; Renilla control light, replicate 2 = 7.88e5.

After knock-down of pippin the results were firefly reporter light, replicate 1 = 6.44e5; firefly reporter light, replicate 2 = 6.28e5; Renilla control light, replicate 1 = 1.59e6; Renilla control light, replicate 2 = 1.34e6. Silencing of CG11737 came out at: firefly reporter light, replicate 1 = 70421; firefly reporter light, replicate 2 = 65149; Renilla control light, replicate 1 = 1.72e6; Renilla control light, replicate 2 = 1.44e6. CG32181 #1 showed firefly reporter light, replicate 1 = 5.31e5; firefly reporter light, replicate 2 = 5.49e5; Renilla control light, replicate 1 = 1.87e6; Renilla control light, replicate 2 = 1.81e6. Depletion of CG32181 #2 resulted in: firefly reporter light, replicate 1 = 3.27e5; firefly reporter light, replicate 2 = 3.09e5; Renilla control light, replicate 1 = 6.64e5; Renilla control light, replicate 2 = 5.97e5. For CG42812, the entry reads firefly reporter light, replicate 1 = 1.43e5; firefly reporter light, replicate 2 = 1.60e5; Renilla control light, replicate 1 = 2.29e6; Renilla control light, replicate 2 = 2.40e6. Depletion of sut1 gave: firefly reporter light, replicate 1 = 1.18e6; firefly reporter light, replicate 2 = 6.49e5; Renilla control light, replicate 1 = 1.35e6; Renilla control light, replicate 2 = 1.02e6.

After knock-down of AdamTS-A #1 the results were firefly reporter light, replicate 1 = 29639; firefly reporter light, replicate 2 = 21415; Renilla control light, replicate 1 = 4.21e5; Renilla control light, replicate 2 = 4.10e5. After knock-down of AdamTS-A #2 the results were firefly reporter light, replicate 1 = 2.65e5; firefly reporter light, replicate 2 = 2.01e5; Renilla control light, replicate 1 = 2.93e6; Renilla control light, replicate 2 = 3.38e6.

2 successive records from above, quoted:
pippin: firefly reporter light, replicate 1 = 6.44e5; firefly reporter light, replicate 2 = 6.28e5; Renilla control light, replicate 1 = 1.59e6; Renilla control light, replicate 2 = 1.34e6
CG11737: firefly reporter light, replicate 1 = 70421; firefly reporter light, replicate 2 = 65149; Renilla control light, replicate 1 = 1.72e6; Renilla control light, replicate 2 = 1.44e6
